According to patent publication US20040242665A1, “Hair composition containing a styrylpyrazole compound, and use thereof for stimulating or inducing hair or eyelash growth and/or reducing loss thereof” (SOCIETE L'OREAL S.A., priority 2002, published 2004):
Some entries share one result that the patent states for a list of compounds.

Target: T1, 15-PGDH (Homo sapiens, UniProt P15428)
T1 construct: made in house
T1 sequence (P15428 1-266): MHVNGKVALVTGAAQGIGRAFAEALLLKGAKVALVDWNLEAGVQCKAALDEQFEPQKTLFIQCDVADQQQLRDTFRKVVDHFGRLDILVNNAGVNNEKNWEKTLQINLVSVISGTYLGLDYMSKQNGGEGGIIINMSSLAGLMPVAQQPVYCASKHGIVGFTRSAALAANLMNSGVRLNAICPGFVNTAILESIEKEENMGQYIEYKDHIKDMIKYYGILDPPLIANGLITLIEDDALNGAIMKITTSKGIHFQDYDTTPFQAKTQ
Assay: Test on 15-PGDH (spectrophotometric, 340 nm, PGE2 and NAD)
Type: biochemical
Conditions: 15-PGDH relative to PGF synthase
Method: The enzyme 15-PGDH is obtained as described in patent application FR 02/05067 filed in the name of L'Oreal, as a suspension in a medium adjusted to a concentration of 0.3 mg/ml and then blocked at −80° C. For the purposes of the test, this suspension is thawed and stored in ice.
In parallel, a 100 mM, pH 7.4 Tris buffer containing 0.1 mM of dithiothreitol (D5545, Sigma-Aldrich, L'isle D'Abeau Chesne, BP 701, 38297, Saint Quentin Fallavier), 1.5 mM of P-NAD (N6522, Sigma-Aldrich, L'isle D'Abeau Chesne, BP 701, 38297, Saint Quentin Fallavier), and 50 μM of prostaglandin E2 (P4172, Sigma-Aldrich, L'isle D'Abeau Chesne, BP 701, 38297, Saint Quentin Fallavier) is prepared.
0.965 ml of this buffer (brought to 37° C. beforehand) is introduced into the cuvette of a spectrophotometer (Perkin-Elmer, Lambda 2) thermostatically maintained at 37° C., the measuring wavelength of which is set at 340 nm. 0.035 ml of enzymatic suspension at 37° C. is introduced into the cuvette concomitantly with the recording (corresponding to an increase in the optical density at 340 nm). The maximum reaction rate is recorded.

N#C/C(=C\c1ccccc1)c1nn(-c2ccccc2)c(N)c1C#N [Compound 8]
Selectivity (IC50fs/IC50dh ratio): > 1.5
